Values from PubChem BioAssay AID652259 (Drosophila RNAi Screening Center, 2013)
Assay: 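Identify new Wingless signalling regulators in fly cells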 (primary screen). Cell system: Drosophila clone 8 imaginal disc epithelial cells. Reagent: long dsRNA against Drosophila genes. Treatment: pathway stimulated by co-transfected Wingless expression plasmid. Detection: 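Firefly luciferase from a tcf-site Wingless reporter, measured alongside co-transfected Renilla luciferase that tracks transfection; pathway stimulated by a Wingless plasmid; the firefly-to-Renilla ratio is not deposited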. Direction: firefly reporter light: higher = more Wg reporter light, before normalisation; Renilla control light: higher = more transfected or surviving cells. Hit rule: 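a knock-down is a candidate when at least two out of four statistical tests show it departing from its plate mean; one test alone signals a weak candidate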. Meaning of the calls: active = candidate regulator (raises or lowers reporter); inactive = not a candidate.
The deposit covers about 22,000 reagents; this is an unselected part of those that have a named target and a result. Over the whole deposit, 233 (1.1%) got an active call. 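Light values are raw, unnormalised plate reads; the ratio scores behind the reporter calls were not deposited.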 Reagents against one gene are numbered here. Names joined by + are all predicted targets of the reagent. The record does not give: the amount of reagent, the time to read-out, the dose of the treatment.

With knock-down of Ilp1 the results were firefly reporter light, replicate 1 = 4779; Renilla control light, replicate 1 = 2152; inactive.
P5CS #1 scored firefly reporter light, replicate 1 = 6999; Renilla control light, replicate 1 = 3667; inactive.
Silencing of P5CS #2 gave: firefly reporter light, replicate 1 = 11360; Renilla control light, replicate 1 = 4471; inactive.
Against Ku80, the entry reads firefly reporter light, replicate 1 = 2560; firefly reporter light, replicate 2 = 4039; Renilla control light, replicate 1 = 1001; Renilla control light, replicate 2 = 2372; inactive.
Against LBR, the entry reads firefly reporter light, replicate 1 = 19344; Renilla control light, replicate 1 = 4861; inactive.
After knock-down of CG8565 the results were firefly reporter light, replicate 1 = 15456; Renilla control light, replicate 1 = 8393; inactive.
Silencing of spo resulted in: firefly reporter light, replicate 1 = 1715; firefly reporter light, replicate 2 = 4678; Renilla control light, replicate 1 = 1296; Renilla control light, replicate 2 = 3281; inactive.
Knock-down of Cht7 #1 came out at: firefly reporter light, replicate 1 = 3497; Renilla control light, replicate 1 = 1146; inactive.
Depletion of Cht7 #2 came out at: firefly reporter light, replicate 1 = 3.43e5; firefly reporter light, replicate 2 = 2.93e5; Renilla control light, replicate 1 = 1.54e5; Renilla control light, replicate 2 = 1.44e5; inactive.
Against CG6610 the deposit lists firefly reporter light, replicate 1 = 1658; firefly reporter light, replicate 2 = 8656; Renilla control light, replicate 1 = 848; Renilla control light, replicate 2 = 2937; inactive.

Reformatted: results already given.
target | reagent no. | firefly reporter light, replicate 1 | firefly reporter light, replicate 2 | Renilla control light, replicate 1 | Renilla control light, replicate 2 | activity call
LBR | 1 | 19344 | – | 4861 | – | inactive
CG8565 | 1 | 15456 | – | 8393 | – | inactive
spo | 1 | 1715 | 4678 | 1296 | 3281 | inactive

Additional records:
Silencing of CG17754 came out at: firefly reporter light, replicate 1 = 1296; firefly reporter light, replicate 2 = 5028; Renilla control light, replicate 1 = 694; Renilla control light, replicate 2 = 1968; inactive.
Against CG31265, the values are firefly reporter light, replicate 1 = 11253; Renilla control light, replicate 1 = 2608; inactive.
Knock-down of Rbp #1 came out at: firefly reporter light, replicate 1 = 19796; Renilla control light, replicate 1 = 784; inactive.
After knock-down of Rbp #2 the results were firefly reporter light, replicate 1 = 12451; Renilla control light, replicate 1 = 4109; inactive.
Against mag, the values are firefly reporter light, replicate 1 = 4497; Renilla control light, replicate 1 = 2605; inactive.
Silencing of Syp #1 resulted in: firefly reporter light, replicate 1 = 3569; Renilla control light, replicate 1 = 1688; inactive.
Knock-down of Syp #2 came out at: firefly reporter light, replicate 1 = 3881; firefly reporter light, replicate 2 = 10539; Renilla control light, replicate 1 = 1664; Renilla control light, replicate 2 = 2646; inactive.
wam scored firefly reporter light, replicate 1 = 18717; Renilla control light, replicate 1 = 11189; inactive.
Tim9a showed firefly reporter light, replicate 1 = 22386; Renilla control light, replicate 1 = 11690; inactive.
With knock-down of Prosalpha4T2, the record shows firefly reporter light, replicate 1 = 2115; firefly reporter light, replicate 2 = 5745; Renilla control light, replicate 1 = 616; Renilla control light, replicate 2 = 2076; inactive.
For CG7202 the deposit lists firefly reporter light, replicate 1 = 21096; Renilla control light, replicate 1 = 6715; inactive.
For CR43142 the deposit lists firefly reporter light, replicate 1 = 19776; Renilla control light, replicate 1 = 8992; inactive.
Silencing of aqz + CG9837 gave: firefly reporter light, replicate 1 = 6464; Renilla control light, replicate 1 = 2061; inactive.
After knock-down of dhd, the screen gave firefly reporter light, replicate 1 = 3659; firefly reporter light, replicate 2 = 8632; Renilla control light, replicate 1 = 883; Renilla control light, replicate 2 = 3155; inactive.
After knock-down of EbpIII the results were firefly reporter light, replicate 1 = 1849; firefly reporter light, replicate 2 = 8164; Renilla control light, replicate 1 = 432; Renilla control light, replicate 2 = 2165; inactive.
With knock-down of vri the results were firefly reporter light, replicate 1 = 4658; firefly reporter light, replicate 2 = 7233; Renilla control light, replicate 1 = 516; Renilla control light, replicate 2 = 875; inactive.
For angel #1, the values are firefly reporter light, replicate 1 = 19013; Renilla control light, replicate 1 = 5904; inactive.
After knock-down of angel #2, the record shows firefly reporter light, replicate 1 = 5.32e5; firefly reporter light, replicate 2 = 5.53e5; Renilla control light, replicate 1 = 3.18e5; Renilla control light, replicate 2 = 2.59e5; inactive.
After knock-down of CG11178, the record shows firefly reporter light, replicate 1 = 2851; firefly reporter light, replicate 2 = 7746; Renilla control light, replicate 1 = 1020; Renilla control light, replicate 2 = 2429; inactive.
Spase25 scored firefly reporter light, replicate 1 = 2192; firefly reporter light, replicate 2 = 6109; Renilla control light, replicate 1 = 922; Renilla control light, replicate 2 = 1909; inactive.
CG7691 scored firefly reporter light, replicate 1 = 11792; Renilla control light, replicate 1 = 3209; inactive.
For CG34045 the deposit lists firefly reporter light, replicate 1 = 30608; Renilla control light, replicate 1 = 20635; inactive.
